Measurements reported in patent publication US20110172295.
For part of these data: No signal at the amounts used counts as a negative. For part of these data: Tags and fusion partners may be left off the protein sequences shown. For part of these data: At least one result comes from cells or an extract, where the contact may be indirect. For part of these data: The exact form of at least one protein or probe is not confirmed.

By UniProt entry, the sequences of proteins in these tests, tags left out. Residues count along the entry.
UniProt Q9CXY6, 2-390: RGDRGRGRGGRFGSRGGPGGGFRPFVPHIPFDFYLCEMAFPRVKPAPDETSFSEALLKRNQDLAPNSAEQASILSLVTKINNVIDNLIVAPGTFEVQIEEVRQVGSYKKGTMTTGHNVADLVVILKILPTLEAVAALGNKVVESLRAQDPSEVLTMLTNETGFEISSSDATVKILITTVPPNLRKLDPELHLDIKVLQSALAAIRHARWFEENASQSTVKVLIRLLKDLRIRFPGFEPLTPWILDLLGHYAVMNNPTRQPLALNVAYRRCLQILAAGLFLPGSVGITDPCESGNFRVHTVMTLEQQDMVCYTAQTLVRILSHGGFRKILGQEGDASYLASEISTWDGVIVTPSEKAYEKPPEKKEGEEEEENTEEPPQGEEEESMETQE

How the values were obtained:
[1] = biological target: T1, Lin-28 (endogenous, P19 nuclear extract) (Mus musculus) (UniProt Q8K3Y3); assay: binding assay; settings: UV crosslink and Lin-28 IP, protein in an extract, label: 32P
T1 sequence (looked up, limits assumed): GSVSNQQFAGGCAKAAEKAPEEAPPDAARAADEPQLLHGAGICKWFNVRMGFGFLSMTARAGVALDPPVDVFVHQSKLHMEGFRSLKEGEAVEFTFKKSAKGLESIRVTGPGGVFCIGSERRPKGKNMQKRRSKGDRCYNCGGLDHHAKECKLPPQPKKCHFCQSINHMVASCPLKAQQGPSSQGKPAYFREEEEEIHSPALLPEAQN

[2] = biological target: T2, Lin-28 (recombinant, E. coli) (Mus musculus) (UniProt Q8K3Y3); assay: inhibition of the protein; settings: purified recombinant protein, protein details: 6xHis N-terminal
T2 sequence (looked up): T1 sequence (looked up, limits assumed)

[3] = biological target: T3, Lin-28 (recombinant, HEK-293) (UniProt Q8K3Y3); assay: inhibition of the protein; settings: add-back at 100 ng/ul to Lin-28-immunodepleted P19 extract inhibits Drosha processing; purified recombinant protein; protein details: Flag N-terminal; label: 32P internal
T3 sequence (looked up, limits assumed): T1 sequence (looked up, limits assumed)

[4] = biological target: NF-45 (Mus musculus) (UniProt Q9CXY6); assay: inhibition of the protein; settings: control protein, no effect on Drosha processing; purified recombinant protein; protein details: 6xHis N-terminal; label: 32P internal
[5] = biological target: T1, Lin-28 (endogenous, P19 nuclear extract) (Mus musculus); assay: pull-down; settings: protein in an extract, letters built from the parent sequence and the stated change
[6] = biological target: T4, Lin-28B (endogenous, P19 nuclear extract) (Mus musculus) (UniProt Q45KJ6); assay: pull-down; settings: protein in an extract, letters built from the parent sequence and the stated change
T4 sequence (looked up, limits assumed): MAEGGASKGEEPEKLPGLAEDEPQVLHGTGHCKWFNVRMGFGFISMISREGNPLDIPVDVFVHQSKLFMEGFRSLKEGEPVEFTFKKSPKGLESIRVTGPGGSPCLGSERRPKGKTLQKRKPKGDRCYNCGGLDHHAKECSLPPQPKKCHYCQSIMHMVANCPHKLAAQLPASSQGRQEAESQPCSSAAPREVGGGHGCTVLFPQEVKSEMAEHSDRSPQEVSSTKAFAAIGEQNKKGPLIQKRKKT

[7] = biological target: T1, Lin-28 (endogenous, P19 nuclear extract) (Mus musculus); assay: competition with a labelled probe; settings: protein in an extract, letters built from the parent sequence and the stated change
[8] = 2'-OMe, 5' spacer18 x2 [1-17 2'-OMe (N=2'-OMe-A at 1,3,4,7,10,12), 5' spacer18 x2 left out], random control capture probe, label: 5' biotin
[9] = fully 2'-OMe, 3' spacer18 [1-30 2'-OMe (N=2'-OMe-A at 3,8,12,21,23,24,27), 3' spacer18 left out], streptavidin pulldown, MALDI-TOF identification, buffer D + 0.2% Triton, 25 C, label: 3' biotin

Sequence: GGGGGUUGCAUAGUUUUAGGGCAGGGAUUUUGCCCACAAGGAGGUAACUAUACGACCUG [hsa-let-7d stem-loop RNA]
- binding result ([1]; buffer D, 25 C, yeast tRNA): binds

Sequence: UCCGCUAGCCUAGCUACUACCAGGUGAGUGGAGAUCUCGUUUCCUUUUGCCUGAUUCCAGGCUGAGGUAGUCGUUUGUACAGUUUGAGGGUCUAUGAUACCACCCGGUACAGGAGAUAACUGUACAGGCAACUGCCUUGCCAGGAACAGCGCGCCAGCUGCCCUCGAGGUUUAAACGAAUUCAGGGUUUCCUUGACAAUAUCAUACUUAU [pri-Let-7g transcript]
- functional effect ([2]; inhibits Drosha processing in HeLa nuclear extract, 1-100 ng/ul, 37 C, label: 32P internal): active
- functional effect [3]: active
- functional effect [4]: not active

Sequence: GGGAUAGUGCAGGUAGUGUUUAGUUAUCUACUGCAUUAUGAG [hsa-miR-20a stem-loop RNA]
- binding result ([1]; control probe not recovered): no binding

Sequence: AUAAGUAUGAUAUUGUC [non-specific control capture oligo]
- binding result [5, 8]: no binding
- binding result [6, 8]: no binding

Sequence: UUAGGGCAGGGAUUUUGCCCACAAGGAGGU [Let-7d loop 2'-O-methyl capture probe]
- binding result [5, 9]: binds
- binding result [6, 9]: binds

Sequence: UUAGGGCAGGGAUUUUGCCCACAAGGAGGU [Let-7d loop 2'-O-methyl competitor]
- binding result ([7]; fully 2'-OMe [1-30 2'-OMe (N=2'-OMe-A at 3,8,12,21,23,24,27)], competes let-7d crosslink to Lin-28, 12.5-1250 nM): binds

Sequence: AGAGACUUAGGCACAAUCUUUCAAGAGAAGAUUGUGCCUAAGUCUCUUU [PLK-1 miRNA precursor with control loop]
- functional effect ([2]; Dicer processing not blocked at identical Lin-28 concentrations, expression host not stated for this assay, label: 32P end, variant of PLK-1 miRNA precursor with Let-7a2 loop): not active

Sequence: AGAGACUUAGGCACAAUCUUUUAGAAUUACAUCAAGGGAGAUAAAGAUUGUGCCUAAGUCUCUUU [PLK-1 miRNA precursor with Let-7a2 loop]
- functional effect ([2]; blocks Dicer processing in HeLa cytoplasmic extract, 1-100 ng/ul, 500 uM ATP, 37 C, expression host not stated for this assay, label: 32P end): active

Sequence: ACCAACAGGCCGGGACAAGUGCAAUAAC [Non-specific 2'-O-methyl competitor]
- binding result ([7]; fully 2'-OMe [1-28 2'-OMe (N=2'-OMe-A at 1,4,5,7,15,17,18,23,24,26,27)]): no binding

Sequence: UCCGCUAGCCUAGCUACUACCAGGUGAGUGGAGAUCUAUUGUGACCAGUCAGAAUAAUGUCAAAGUGCUUACAGUGCAGGUAGUGAUAUGUGCAUCUACUGCAGUGAAGGCACUUGUAGCAUUAUGGUGACAGCUGCCUCGCUCGAGGUUUAAACGAAUUCAGGGUUUCCUUGACAAUAUCAUACUUAU [pri-miR-17 transcript]
- functional effect ([2]; no effect on Drosha processing in HeLa nuclear extract, label: 32P internal): not active
- functional effect [4]: not active
